Measured values published in paper PMC8469703.
These are yes or no findings as the source states them, for the method shown. For some of these results: In cells and extracts the contact can be indirect. Some results given as binding are weak or reduced against the parent protein; the word gives no strength.

The chains behind the UniProt entries cited, without tags or fusion partners. Where a name states a change or a piece, a line headed by the entry shows the natural chain unless it says otherwise. A line that says so, or that is headed by a name, gives the form on record, which may keep a tag or linker. Residues count along the entry.
UniProt O00571: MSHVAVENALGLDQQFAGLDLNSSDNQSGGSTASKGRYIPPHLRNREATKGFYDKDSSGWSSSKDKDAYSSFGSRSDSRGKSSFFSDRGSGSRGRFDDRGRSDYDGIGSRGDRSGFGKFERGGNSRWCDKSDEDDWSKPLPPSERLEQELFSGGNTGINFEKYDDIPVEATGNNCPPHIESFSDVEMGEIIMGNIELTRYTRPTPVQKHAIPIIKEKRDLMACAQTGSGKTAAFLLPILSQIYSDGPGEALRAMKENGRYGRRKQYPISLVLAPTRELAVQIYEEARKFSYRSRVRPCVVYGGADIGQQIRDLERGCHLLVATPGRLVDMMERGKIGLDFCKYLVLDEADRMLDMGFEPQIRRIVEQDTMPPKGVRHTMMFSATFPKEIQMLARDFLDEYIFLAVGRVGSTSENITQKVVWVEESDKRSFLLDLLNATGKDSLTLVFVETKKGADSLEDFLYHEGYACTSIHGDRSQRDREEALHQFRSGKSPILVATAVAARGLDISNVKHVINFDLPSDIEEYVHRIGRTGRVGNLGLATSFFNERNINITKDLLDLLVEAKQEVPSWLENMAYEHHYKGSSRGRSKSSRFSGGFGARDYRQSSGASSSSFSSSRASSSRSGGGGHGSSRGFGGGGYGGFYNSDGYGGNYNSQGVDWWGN
GST-tagged C-terminal region of DDX3 (GST-DDX3^535–662): residues 535-662 of O00571

Experiments:
[1] = biological target: GST-tagged C-terminal region of DDX3 (GST-DDX3^535–662) (human) (UniProt O00571); assay: pull-down; bead-bound GST-DDX3 variants incubated with U2OS-WT or U2OS-2RK cell extracts; binding buffer PBS with 0.5% NP-40, 0.25% sodium deoxycholate, 5% glycerol, protease inhibitors; 4 °C, 1 h; only the target purified
[2] = biological target: Flag-tagged methylation-defective hnRNPK (hnRNPK^MD, R296K/R299K) in U2OS-2RK cells (UniProt P61978); assay: co-IP; Flag-hnRNPK precipitated with anti-Flag antibody and protein G Sepharose from U2OS-WT, U2OS-2RK or U2OS-2RK/1SA lysates (PBS, 0.5% Triton X-100, 4 °C, 3 h); endogenous DDX3 detected by blot; cells untreated or treated with etoposide (50 μM), RK-33 (5 or 10 μM), AMPPNP (5 μM), AMP (5 μM) or AVN A
[3] = biological target: Flag-tagged wild-type hnRNPK in U2OS-WT cells (UniProt P61978); assay: as above
[4] = biological target: GST-tagged C-terminal region of DDX3 (GST-DDX3^535–662) (human) (UniProt O00571); assay: pull-down; bead-bound GST-DDX3 variants incubated with recombinant hnRNPK or the KI segment; binding buffer PBS with 0.5% NP-40, 0.25% sodium deoxycholate, 5% glycerol, protease inhibitors; 4 °C, 1 h; three washes; SDS-PAGE; both purified
[5] = biological target: GST-tagged full-length DDX3 (GST-DDX3^1–662) (human) (UniProt O00571); assay: as above
[6] = biological target: Flag-tagged methylation-defective hnRNPK (hnRNPK^MD, R296K/R299K) in U2OS-2RK cells (UniProt P61978); assay: co-IP; U2OS-2RK cells transfected with Myc-DDX3 variants (36 or 48 h); immunoprecipitation of hnRNPK-2RK, precipitated Myc-DDX3 detected by blot

## Flag-tagged wild-type hnRNPK in U2OS-WT cells (from UniProt P61978 1-463)
[1]
  binding: binds

## DDX3, endogenous in U2OS cells (from UniProt O00571 1-662)
[2]
  binding: binds
[3]
  binding: binds

## recombinant His6-tagged hnRNPK (from pET23a-Trx-hnRNPK) (from UniProt P61978 1-463)
[4]
  binding: binds
[5]
  binding: binds

## Flag-tagged methylation-defective hnRNPK (hnRNPK^MD, R296K/R299K) in U2OS-2RK cells (from UniProt P61978 1-463)
[1]
  binding: binds

## Myc-tagged full-length DDX3 (Myc-DDX3^1–662) (from UniProt O00571 1-662)
[6]
  binding: binds
